The other results are listed elsewhere or left out. The main result of the screen is listed elsewhere. These columns were measured beside it and carry no call. Compounds called inactive in the main read-out are mostly missing here. Words in brackets tell the shape of the fitted curve; partial curves, single points and poor fits give uncertain potencies.
Test: qHTS Assay to Find Inhibitors of Chronic Active B-Cell Receptor Signaling
Details: ABC-DLBCL IkBa-CBG/CBR reporter, luminescence ratio (green luciferase fused to IkBa over red control in TMD8 lymphoma cells), 4 h
How it was run: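 Compounds up to 46 uM were incubated four hours with TMD8 cells whose green CBG68 luciferase is fused to IkappaBalpha; red CBR luminescence normalised the signal, and concentration-effect curves were fitted to fusion, red and ratio data.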

[1] = measured here: CBR red luminescence, cell number
[2] = measured here: IkBa-CBG green luminescence

Compound	AC50 [1]	AC50 [2]
COc1cccc(C(c2nnnn2Cc2ccco2)N2CCN(c3cccc(C)c3C)CC2)c1OC (stereo unspecified)	35.5 µM [falling, single point]	
CC(=O)N1CCN(S(=O)(=O)c2ccc(S(=O)(=O)NCC(C)C)cc2)CC1	2.91 µM [falling, partial curve, poor fit]	
COc1ccc(NC(=O)CC(Cc2ccccc2)C(=O)O)cc1 (stereo unspecified)	29.1 µM [rising, single point]	
CC(CCN1CCC(n2nccc2NC(=O)c2ccccc2Cl)CC1)c1ccccc1 (stereo unspecified)	2.82 µM [falling, partial curve, poor fit]	
CCCCn1c(Cc2ccccc2)n[nH]c1=S		16.4 µM [falling, partial curve, poor fit]
COc1ccc(/C=N\NC(=O)c2ccccc2)cc1COc1ccc(F)cc1	8.91 µM [falling, partial curve, poor fit]	
COc1ccc(OCCNS(=O)(=O)c2ccccc2)cc1	15.8 µM [rising, partial curve, poor fit]	
CCOC(=O)C1=C(C)N=C2SCCC(=O)N2C1c1cccs1 (stereo unspecified)	10 µM [falling, partial curve, poor fit]	
C=CCOc1c(Br)cc(CNc2ccc(NC(=O)C(C)C)c(OC)c2)cc1OCC	29.1 µM [rising, single point]	
CCCn1c(N)c(N(CCOC)C(=O)COC(=O)c2ccccc2NCCO)c(=O)[nH]c1=O	13 µM [falling, partial curve]	
Cc1cc(C)cc(NS(=O)(=O)c2ccc(-c3cnc(C4CC4)o3)cc2)c1	7.08 µM [rising, partial curve]	7.94 µM [falling, partial curve]
CCS(=O)(=O)N1Cc2ccccc2CC1C(=O)Nc1ccc(F)c(F)c1 (stereo unspecified)	1.78 µM [falling, full curve, poor fit]	
S=C(NCCN1CCOCC1)N/N=C/c1cccs1	35.5 µM [falling, single point]	12.6 µM [falling, partial curve]
C/C(CC(=O)Nc1cccc(C(F)(F)F)c1)=N\NC(=O)Cc1ccccc1	14.1 µM [falling, single point]	
COc1cc2c(cc1NCc1ccccn1)oc1ccccc12	6.51 µM [rising, single point]	
COc1ccc(-n2nnc3c(SCC(=O)NCC4CCCO4)ncnc32)cc1 (stereo unspecified)	25.1 µM [falling, single point]	
O=C1N=c2ccccc2=C1c1sc(NS(=O)(=O)Cc2ccccc2)nc1O	35.5 µM [falling, single point]	31.6 µM [rising, single point]
Cn1cnc2cc(OC(=O)c3ccccc3)ccc21	14.6 µM [rising, partial curve, poor fit]	
Cc1ccc(C(=O)NCC2(c3ccccc3)CCCC2)cc1	7.08 µM [rising, partial curve, poor fit]	
COc1ccc(C(=O)c2sc3nc(C)cc(-c4cccs4)c3c2N)cc1OC	29.1 µM [falling, single point]	
CCc1ccc2[nH]c(=O)c(CN(Cc3ccccc3)Cc3nnnn3Cc3ccco3)cc2c1	0.82 µM [falling, full curve, poor fit]	

Compound	AC50 [1]	AC50 [2]
CN(Cc1nc2ccccc2c(=O)[nH]1)c1ccccc1	0.82 µM [rising, full curve, poor fit]	
CCOC(=O)c1ccc2c(c1)N(CC)C(=O)c1ccccc1S2	22.4 µM [falling, single point]	
Cc1ccc(S(=O)(=O)NC(=O)COc2ccccc2)cc1	1 µM [rising, full curve, poor fit]	
c1ccc2c(c1)OC(CCCN1CCCCC1)c1ccccc1S2 (stereo unspecified)	29.1 µM [falling, single point]	
COC(=O)C1=C(O)/C(=C\c2ccc(CNC(=O)C(=O)Nc3ccc(C)cc3)o2)N=C1C	3.16 µM [falling, partial curve, poor fit]	
COc1cc2c(c(OC)c1OC)C(c1ccc(O)cc1)CC(=O)O2 (stereo unspecified)		20.6 µM [falling, partial curve, poor fit]
O=S(=O)(/C=C/c1ccccc1)N1CCN(c2cccc(Cl)c2)CC1	23.1 µM [rising, single point]	
Cc1sc(NC(=O)C2C3CCC(O3)C2C(=O)O)c(C(=O)OC(C)C)c1-c1ccc(Cl)cc1 (stereo unspecified)	1.26 µM [falling, partial curve, poor fit]	
COc1cc(CN2CC(=O)N(c3cccc(Cl)c3C)C2=S)cc(OC)c1OC	3.98 µM [falling, full curve]	
COc1ccc(OC)c(NC(=O)CSc2ncnc3c2cnn3-c2ccccc2Cl)c1	5.8 µM [falling, full curve]	
O=C(c1ccco1)N1N=C(c2cccs2)CC1c1cc([N+](=O)[O-])ccc1O (stereo unspecified)	8.91 µM [rising, partial curve, poor fit]	
COc1ccc(-n2c(SCC(N)=O)nnc2-c2cccnc2)cc1	16.4 µM [rising, partial curve, poor fit]	
Cc1oc2c(cc(NS(=O)(=O)c3ccc(C(C)C)cc3)c3ccccc32)c1C(=O)O	35.5 µM [falling, partial curve, poor fit]	
CSc1cccc(NC(=O)CCc2ccccc2)c1	7.94 µM [rising, partial curve, poor fit]	
FC(F)(F)c1cccc(-c2noc(CN3CCOCC3)n2)c1	35.5 µM [rising, single point]	
CCNC(=O)n1nccc1C(C)Oc1ccccc1 (stereo unspecified)	35.5 µM [rising, partial curve, poor fit]	
CCCCSc1nc(N)c(C#N)c(-c2cccs2)c1C#N	18.4 µM [falling, single point]	
CCOC(=O)c1c(NC(=O)C(C)OC(=O)c2ccc(NC(=O)CC#N)cc2)sc2c1CCCC2 (stereo unspecified)	29.1 µM [falling, partial curve, poor fit]	
COC(=O)c1sc(S(=O)(=O)Nc2ccc3cn[nH]c3c2)c(C(=O)OC)c1C	6.51 µM [rising, single point]	
Cc1occc1C(=O)N/N=C/c1ccccn1	12.6 µM [falling, partial curve, poor fit]	
CN(c1ccccc1)S(=O)(=O)c1cccc(NC(=O)COc2cccc([N+](=O)[O-])c2)c1	14.6 µM [falling, partial curve]	

2 compounds drawn at random from the list so far, as already listed:
Compound	AC50 [1]	AC50 [2]
CN(Cc1nc2ccccc2c(=O)[nH]1)c1ccccc1	0.82 µM [rising, full curve, poor fit]	
COc1ccc(OC)c(NC(=O)CSc2ncnc3c2cnn3-c2ccccc2Cl)c1	5.8 µM [falling, full curve]	

(more compounds)

Compound	AC50 [1]	AC50 [2]
O=C(Nc1ccc2c(c1)OCO2)c1ccc(Br)s1	25.9 µM [falling, partial curve, poor fit]	
CCCCNC(=O)/C=C/c1ccc(S(=O)(=O)Nc2ccc(OC)cc2)cc1	15.8 µM [rising, partial curve, poor fit]	
COc1c2ccoc2nc2c(OC)cccc12		18.4 µM [falling, partial curve, poor fit]
C/C(=N\NC(=O)C1COc2ccccc2O1)c1cccs1 (stereo unspecified)	0.92 µM [rising, full curve, poor fit]	
Cc1ccsc1C1C(C#N)=C(N)N(N(C)C)C2=C1C(=O)CCC2 (stereo unspecified)	31.6 µM [falling, single point]	
CN1CCc2nc(SCC(=O)Nc3ccc(F)cc3)c(C#N)cc2C1	7.31 µM [falling, partial curve]	
COc1cc(-n2c(N)c(C(=O)NCc3ccco3)c3nc4ccccc4nc32)cc(OC)c1OC	29.1 µM [falling, single point]	
CC1(C)CC(Nc2ccc(Nc3ccccc3)cc2)CC(C)(C)N1	14.1 µM [falling, partial curve, poor fit]	
CCCc1cc(=O)oc2cc(OC3CCCCC3=O)ccc12 (stereo unspecified)	6.31 µM [rising, single point]	
Cc1cc(C)c(C#N)c(N2CCN(c3ccccc3F)CC2)n1	4.47 µM [rising, full curve, poor fit]	
O=C(O)CSC1CC(=O)N(c2ccc(Cl)c(Cl)c2)C1=O (stereo unspecified)	0.82 µM [falling, full curve, poor fit]	
CC(=O)Nc1c(Br)cc(N2C(=O)CCC2=O)cc1Br	16.4 µM [falling, partial curve, poor fit]	
COc1ccccc1CNc1ncnc2sccc12	10 µM [falling, partial curve, poor fit]	
O=C(NCCCN1CCOCC1)c1ccc2c(=O)n(Cc3cccc(Br)c3)c(=S)[nH]c2c1	0.1 µM [falling, full curve, poor fit]	
Cc1ccc(-n2ncc3c(N4CCC(C(N)=O)CC4)ncnc32)cc1	1.41 µM [rising, partial curve, poor fit]	
C/C(=N/NC(=O)c1ccc(C)s1)c1ccncc1	5.01 µM [falling, partial curve]	
CCOC(=O)c1cc2c(ccn2C)n1Cc1ccccc1Cl	35.5 µM [rising, single point]	
COc1cccc(Cn2c(C3CC3)nc3ccc(NC(=O)c4ccco4)cc3c2=O)c1	2.91 µM [rising, partial curve, poor fit]	
O=C(NNc1ncc(C(F)(F)F)cc1Cl)c1c(Cl)cccc1Cl	22.4 µM [rising, single point]	28.2 µM [falling, single point]
CCN(CC)S(=O)(=O)c1ccc(NC(=O)Nc2cccc(C(F)(F)F)c2)cc1	29.1 µM [falling, single point]	

From PubChem BioAssay AID493014 (National Center for Advancing Translational Sciences (NCATS), 2011)
